Measurements published in publication PMC7470949.

Chains of the proteins cited; added tags and fusions are not shown.
UniProt P38919: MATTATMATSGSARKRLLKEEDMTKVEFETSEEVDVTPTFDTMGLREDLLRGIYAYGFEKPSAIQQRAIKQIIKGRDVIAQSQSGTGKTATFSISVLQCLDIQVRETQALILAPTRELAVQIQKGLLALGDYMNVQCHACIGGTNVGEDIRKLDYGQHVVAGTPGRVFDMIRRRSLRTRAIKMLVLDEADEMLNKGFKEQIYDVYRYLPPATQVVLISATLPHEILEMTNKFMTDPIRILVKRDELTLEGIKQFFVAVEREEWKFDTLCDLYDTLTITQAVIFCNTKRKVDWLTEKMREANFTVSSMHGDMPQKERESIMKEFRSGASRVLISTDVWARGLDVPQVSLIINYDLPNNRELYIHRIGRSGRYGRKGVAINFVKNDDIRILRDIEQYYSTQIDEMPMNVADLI
UniProt O15234: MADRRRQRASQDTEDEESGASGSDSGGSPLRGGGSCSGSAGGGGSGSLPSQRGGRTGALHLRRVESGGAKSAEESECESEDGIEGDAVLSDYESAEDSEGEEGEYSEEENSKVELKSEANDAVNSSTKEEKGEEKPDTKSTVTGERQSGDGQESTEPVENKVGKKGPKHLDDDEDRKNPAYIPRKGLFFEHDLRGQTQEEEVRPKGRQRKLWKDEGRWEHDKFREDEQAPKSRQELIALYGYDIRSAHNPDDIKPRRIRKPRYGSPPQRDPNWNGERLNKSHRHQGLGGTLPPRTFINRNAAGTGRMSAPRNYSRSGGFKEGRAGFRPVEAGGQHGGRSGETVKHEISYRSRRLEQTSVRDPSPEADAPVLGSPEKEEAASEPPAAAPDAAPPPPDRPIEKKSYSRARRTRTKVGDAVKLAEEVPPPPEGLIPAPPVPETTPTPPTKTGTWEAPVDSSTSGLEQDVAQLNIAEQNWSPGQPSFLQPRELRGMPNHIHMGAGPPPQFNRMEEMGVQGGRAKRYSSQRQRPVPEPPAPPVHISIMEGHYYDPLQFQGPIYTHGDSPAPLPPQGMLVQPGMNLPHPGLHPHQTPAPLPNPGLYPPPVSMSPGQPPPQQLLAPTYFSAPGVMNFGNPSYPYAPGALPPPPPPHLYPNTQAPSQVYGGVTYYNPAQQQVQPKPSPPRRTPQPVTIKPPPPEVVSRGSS

Target: FLAG-tagged EIF4A3 (UniProt P38919)
Test: affinity purification with mass spectrometry; SILAC; FLAG or FLAG-EIF4A3 from 293 WT cells and CASC3 KO clone H cells treated with CASC3 siRNA; lysis in buffer E with RNase A (20 mM HEPES-KOH pH 7.9, 100 mM KCl); anti-FLAG M2 magnetic beads, 4°C, 2 h; eluted with FLAG peptides

binding: binds
Substance: CASC3 (from UniProt O15234 1-703)

No constants are given. Whether binding was seen depends on the method and setting. In cells and extracts the contact can be indirect. A yes stands for co-enrichment or nearness to the bait. Other partners may have been found.
